Measured values from paper PMC8187606, “Biophysical and structural studies reveal marginal stability of a crucial hydrocarbon biosynthetic enzyme acyl ACP reductase” (Scientific Reports, 2021).
These are yes or no findings as the source states them, for the method shown. Tags and fused reporters may be left off the sequences shown.

Tests used:
[1] = target: Acyl-ACP reductase (AAR) from Synechococcus elongatus PCC 7942, 6-His tagged recombinant (Synechococcus elongatus PCC 7942) (UniProt Q54765); experiment: SEC; Superdex 200 Increase 10/300 GL; AAR 1.5 mg/mL; 50 mM Tris, 100 mM NaCl, 1 mM DTT, pH 7.4; with 2.25 M GdnHCl; both purified
[2] = target: Acyl-ACP reductase (AAR) from Synechococcus elongatus PCC 7942, 6-His tagged recombinant (Synechococcus elongatus PCC 7942) (UniProt Q54765); experiment: condition: only after de-lipidation on a MAYI-ODS column; native MS; intact mass by UHPLC (C8) coupled to ESI-MS; AAR de-lipidated beforehand on a Shimadzu MAYI-ODS column; both purified

B1: Acyl-ACP reductase (AAR) from Synechococcus elongatus PCC 7942, 6-His tagged recombinant (enzyme)
chain: MFGLIGHLTSLEQARDVSRRMGYDEYADQGLEFWSSAPPQIVDEITVTSATGKVIHGRYIESCFLPEMLAARRFKTATRKVLNAMSHAQKHGIDISALGGFTSIIFENFDLASLRQVRDTTLEFERFTTGNTHTAYVICRQVEAAAKTLGIDITQATVAVVGATGDIGSAVCRWLDLKLGVGDLILTARNQERLDNLQAELGRGKILPLEAALPEADFIVWVASMPQGVVIDPATLKQPCVLIDGGYPKNLGSKVQGEGIYVLNGGVVEHCFDIDWQIMSAAEMARPERQMFACFAEAMLLEFEGWHTNFSWGRNQITIEKMEAIGEASVRHGFQPLALAI
notes: Acyl-ACP reductase (AAR), Synechococcus elongatus PCC 7942, codon-optimized aar gene in pQE30; domains described as NTD 1-130, mid-domain 131-264, CTD 265-341; also called Acyl-acyl carrier protein reductase; source: E. coli M15 (pQE30AAR), purified from the soluble fraction (Ni-NTA, gel filtration)
For B1, the binding [1] was “no binding (condition: with 2.25 M GdnHCl)” and the binding [2] was “no binding”.
